Laboratory results: paper PMC10040874
These are yes or no findings as the source states them, for the method shown. Some entries that bind do so weakly or less than the wild type. Blank lines part the entries; values can stand above or below the binder they belong to.

Assays:
[1] = biological target: T1, human PRL1 (human), Q93096; experiment: AUC; sedimentation velocity, 20 °C, ∼50 μM protein, 20 mM Hepes pH 7.5, 100 mM NaCl, 5 mM TCEP (reducing conditions); absorbance at 280 nm, c(s) distribution; both purified; conditions: remark: other sources report otherwise
T1 chain: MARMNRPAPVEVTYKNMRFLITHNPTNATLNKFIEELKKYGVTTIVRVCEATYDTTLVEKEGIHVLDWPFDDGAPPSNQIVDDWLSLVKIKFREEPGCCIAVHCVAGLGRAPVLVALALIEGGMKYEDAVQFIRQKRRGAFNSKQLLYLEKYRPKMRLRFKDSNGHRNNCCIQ

[2] = biological target: T2, human PRL1 in the presence of 1 mM H2O2 (disulfide form) (human), Q93096; experiment: AUC; sedimentation velocity, 20 °C, ∼50 μM protein, 20 mM Hepes pH 7.5, 100 mM NaCl, 1 mM H2O2 without TCEP; both purified; conditions: remark: other sources report otherwise
T2 chain: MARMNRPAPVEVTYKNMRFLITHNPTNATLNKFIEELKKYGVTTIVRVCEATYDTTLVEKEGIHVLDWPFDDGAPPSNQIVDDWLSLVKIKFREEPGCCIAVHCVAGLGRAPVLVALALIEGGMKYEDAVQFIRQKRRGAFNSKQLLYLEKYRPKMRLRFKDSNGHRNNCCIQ

[3] = biological target: GPLGS-CBS-pair of D. melanogaster CNNM (D. melanogaster); experiment: crystal structure; complex mixed 2:1 (PRL:CBS-pair), purified on Superdex-200; sitting drop, 0.1 M Bis-tris propane pH 6.5, 17% PEG3350, 0.2 M NaI, 4 °C; 2.5 Å, P4(1)2(1)2; both purified

- binding [1]: no binding (tested: ∼50 μM)
B1: human PRL1, Q93096 1-173 (enzyme)
chain: MARMNRPAPVEVTYKNMRFLITHNPTNATLNKFIEELKKYGVTTIVRVCEATYDTTLVEKEGIHVLDWPFDDGAPPSNQIVDDWLSLVKIKFREEPGCCIAVHCVAGLGRAPVLVALALIEGGMKYEDAVQFIRQKRRGAFNSKQLLYLEKYRPKMRLRFKDSNGHRNNCCIQ

- binding [2]: no binding (tested: ∼50 μM)
B2: human PRL1 in the presence of 1 mM H2O2 (disulfide form), Q93096 1-173 (enzyme)
chain: MARMNRPAPVEVTYKNMRFLITHNPTNATLNKFIEELKKYGVTTIVRVCEATYDTTLVEKEGIHVLDWPFDDGAPPSNQIVDDWLSLVKIKFREEPGCCIAVHCVAGLGRAPVLVALALIEGGMKYEDAVQFIRQKRRGAFNSKQLLYLEKYRPKMRLRFKDSNGHRNNCCIQ
modifications: here or on the partner: disulfide of the catalytic cysteine (formed with 1 mM H2O2); disulfide of the catalytic cysteine (formed with 1 mM H2O2)

- binding [3]: binds
B3: D. melanogaster PRL (res. 14–165) C104A (enzyme, UniProt O61722 14-165)
chain: PALIEYKGMKFLITDRPSDITINHYIMELKKNNVNTVVRVCEPSYNTDELETQGITVKDLAFEDGTFPPQQVVDEWFEVLKDKYQQNPEAAVAVHCVAGLGRAPVLVALALIELGLKYEAAVEMIRDKRRGAINAKQLSFLEKYKPKARLKH
